No constants are given. Whether binding was seen depends on the method and setting. In cells and extracts the contact can be indirect. Some results given as binding are weak or reduced against the parent protein; the word gives no strength.

By UniProt entry, the sequences of proteins in these tests, tags left out.
UniProt P46100: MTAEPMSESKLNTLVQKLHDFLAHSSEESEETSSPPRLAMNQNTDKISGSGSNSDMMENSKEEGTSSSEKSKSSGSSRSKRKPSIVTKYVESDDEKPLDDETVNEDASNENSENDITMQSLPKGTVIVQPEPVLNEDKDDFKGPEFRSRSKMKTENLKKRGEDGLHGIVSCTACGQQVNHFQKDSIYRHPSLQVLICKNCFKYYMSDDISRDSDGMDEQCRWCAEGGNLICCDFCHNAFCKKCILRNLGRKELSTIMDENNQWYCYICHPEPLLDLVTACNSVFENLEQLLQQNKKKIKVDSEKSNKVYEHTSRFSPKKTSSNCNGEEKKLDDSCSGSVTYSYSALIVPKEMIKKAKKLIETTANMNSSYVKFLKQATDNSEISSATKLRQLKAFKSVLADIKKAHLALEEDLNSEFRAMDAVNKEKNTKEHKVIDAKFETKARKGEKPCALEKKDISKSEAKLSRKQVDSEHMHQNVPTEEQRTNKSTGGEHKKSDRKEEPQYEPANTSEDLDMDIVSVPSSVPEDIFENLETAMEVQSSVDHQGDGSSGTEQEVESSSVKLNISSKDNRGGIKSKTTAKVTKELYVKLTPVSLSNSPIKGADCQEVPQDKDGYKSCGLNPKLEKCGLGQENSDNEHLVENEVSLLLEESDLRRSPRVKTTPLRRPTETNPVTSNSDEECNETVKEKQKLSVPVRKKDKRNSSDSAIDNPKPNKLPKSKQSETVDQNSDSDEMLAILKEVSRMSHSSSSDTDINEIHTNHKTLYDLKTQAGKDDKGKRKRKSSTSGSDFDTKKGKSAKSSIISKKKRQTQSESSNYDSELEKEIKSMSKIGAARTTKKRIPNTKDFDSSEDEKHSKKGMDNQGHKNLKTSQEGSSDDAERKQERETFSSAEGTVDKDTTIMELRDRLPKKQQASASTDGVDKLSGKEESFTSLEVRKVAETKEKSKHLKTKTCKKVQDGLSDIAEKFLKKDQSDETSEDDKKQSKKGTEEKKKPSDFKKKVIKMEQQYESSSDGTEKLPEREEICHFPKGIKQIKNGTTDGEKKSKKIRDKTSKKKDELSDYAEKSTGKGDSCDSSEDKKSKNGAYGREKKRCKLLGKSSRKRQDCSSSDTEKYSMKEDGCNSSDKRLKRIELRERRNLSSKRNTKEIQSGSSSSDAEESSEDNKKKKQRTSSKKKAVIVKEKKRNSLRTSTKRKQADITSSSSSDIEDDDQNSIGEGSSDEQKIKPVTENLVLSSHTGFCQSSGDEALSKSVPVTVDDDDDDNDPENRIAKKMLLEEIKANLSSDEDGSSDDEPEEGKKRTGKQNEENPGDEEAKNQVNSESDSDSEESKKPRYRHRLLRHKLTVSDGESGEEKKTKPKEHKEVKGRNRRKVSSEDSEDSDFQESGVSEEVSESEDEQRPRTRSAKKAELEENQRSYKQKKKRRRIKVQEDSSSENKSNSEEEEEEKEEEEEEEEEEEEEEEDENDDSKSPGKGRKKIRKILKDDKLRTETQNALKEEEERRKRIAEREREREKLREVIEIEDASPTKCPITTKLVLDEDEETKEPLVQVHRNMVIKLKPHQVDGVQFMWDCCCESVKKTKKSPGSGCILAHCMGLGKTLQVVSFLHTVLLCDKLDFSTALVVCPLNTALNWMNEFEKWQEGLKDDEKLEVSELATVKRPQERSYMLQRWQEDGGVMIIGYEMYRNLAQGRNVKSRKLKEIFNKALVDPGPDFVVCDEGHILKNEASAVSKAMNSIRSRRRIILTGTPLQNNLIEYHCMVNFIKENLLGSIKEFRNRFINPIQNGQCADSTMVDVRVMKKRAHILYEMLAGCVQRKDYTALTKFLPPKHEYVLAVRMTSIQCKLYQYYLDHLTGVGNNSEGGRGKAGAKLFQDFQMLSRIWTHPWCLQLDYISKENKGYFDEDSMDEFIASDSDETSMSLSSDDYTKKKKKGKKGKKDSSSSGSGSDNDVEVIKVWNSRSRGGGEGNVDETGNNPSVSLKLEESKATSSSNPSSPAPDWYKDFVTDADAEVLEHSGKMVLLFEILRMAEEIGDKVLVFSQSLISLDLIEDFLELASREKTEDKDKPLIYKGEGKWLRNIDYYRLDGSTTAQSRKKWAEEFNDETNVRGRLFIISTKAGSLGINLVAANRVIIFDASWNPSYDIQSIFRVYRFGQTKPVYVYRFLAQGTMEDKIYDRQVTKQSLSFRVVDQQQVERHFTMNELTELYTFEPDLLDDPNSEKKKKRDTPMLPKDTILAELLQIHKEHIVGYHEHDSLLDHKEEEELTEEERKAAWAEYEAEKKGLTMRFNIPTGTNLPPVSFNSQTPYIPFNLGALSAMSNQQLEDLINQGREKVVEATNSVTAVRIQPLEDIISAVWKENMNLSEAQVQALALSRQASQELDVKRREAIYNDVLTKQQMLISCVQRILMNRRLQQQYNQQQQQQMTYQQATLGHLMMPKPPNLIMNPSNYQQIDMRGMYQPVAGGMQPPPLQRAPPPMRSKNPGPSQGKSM
UniProt Q9UER7: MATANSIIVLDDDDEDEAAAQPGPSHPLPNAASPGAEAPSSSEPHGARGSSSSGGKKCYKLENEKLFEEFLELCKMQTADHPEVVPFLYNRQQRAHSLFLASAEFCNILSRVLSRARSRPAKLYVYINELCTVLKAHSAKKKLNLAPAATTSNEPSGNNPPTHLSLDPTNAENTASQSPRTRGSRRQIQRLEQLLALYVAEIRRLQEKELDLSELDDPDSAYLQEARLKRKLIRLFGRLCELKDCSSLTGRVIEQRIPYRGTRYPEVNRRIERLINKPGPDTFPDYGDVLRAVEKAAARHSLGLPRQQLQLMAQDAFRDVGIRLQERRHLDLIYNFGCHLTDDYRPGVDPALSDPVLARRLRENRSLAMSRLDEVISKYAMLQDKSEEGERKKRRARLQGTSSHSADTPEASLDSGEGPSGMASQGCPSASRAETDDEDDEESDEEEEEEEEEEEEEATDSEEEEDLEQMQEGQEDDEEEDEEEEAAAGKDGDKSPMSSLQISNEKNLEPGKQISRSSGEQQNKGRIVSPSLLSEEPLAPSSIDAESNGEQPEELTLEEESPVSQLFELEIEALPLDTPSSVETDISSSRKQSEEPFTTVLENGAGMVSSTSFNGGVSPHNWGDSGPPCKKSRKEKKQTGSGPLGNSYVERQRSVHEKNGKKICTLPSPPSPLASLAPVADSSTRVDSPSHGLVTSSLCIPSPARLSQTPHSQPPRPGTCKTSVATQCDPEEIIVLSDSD

This experiment concerns the target T1, centromere protein B (CENP-B), inner kinetochore protein (human (endogenous in HcoEpiC, HeLa and SW480)) (UniProt P07199).
T1 sequence: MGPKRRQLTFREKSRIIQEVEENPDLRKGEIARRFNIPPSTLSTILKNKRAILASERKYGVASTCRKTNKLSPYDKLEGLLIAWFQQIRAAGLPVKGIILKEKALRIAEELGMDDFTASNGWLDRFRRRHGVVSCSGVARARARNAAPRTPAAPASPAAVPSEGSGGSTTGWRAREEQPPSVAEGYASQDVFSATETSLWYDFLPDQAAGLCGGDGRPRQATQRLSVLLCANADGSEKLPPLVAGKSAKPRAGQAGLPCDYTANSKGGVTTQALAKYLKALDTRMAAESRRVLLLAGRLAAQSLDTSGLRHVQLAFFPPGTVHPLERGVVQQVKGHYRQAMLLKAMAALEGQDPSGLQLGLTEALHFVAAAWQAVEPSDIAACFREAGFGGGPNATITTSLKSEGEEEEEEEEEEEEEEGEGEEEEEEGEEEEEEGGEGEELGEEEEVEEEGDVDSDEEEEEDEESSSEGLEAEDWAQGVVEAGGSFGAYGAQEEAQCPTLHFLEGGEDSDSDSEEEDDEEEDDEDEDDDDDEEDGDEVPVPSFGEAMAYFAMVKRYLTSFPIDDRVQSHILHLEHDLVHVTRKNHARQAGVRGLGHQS
The experiment is described as follows: co-IP; native chromatin IP with anti-CENP-B from MNase-digested nuclear chromatin (mostly mono-, di- and tri-nucleosomal arrays) extracted in low salt buffer (0.5X PBS, 5 mM EGTA) overnight at 4°C; normal colon, HeLa and SW480 cells; quantitative two-color fluorescent western blot. Background: Immunoblotting shows a protein as a band on a membrane.
“ATRX, transcription-coupled histone chaperone (from UniProt P46100 1-2492)”: the binding entry is listed as “binds”.

Turning to “centromere protein A (CENP-A), histone H3 variant (from UniProt P49450 1-140) (other; other documents disagree on this pair)”, the binding result is recorded as “binds”.

As to “DAXX, transcription-coupled histone chaperone (from UniProt Q9UER7 1-740)”, the binding result is recorded as “binds”.

The values above are taken from paper PMC4363203.
